The record followed here is patent publication US10953003B2, “Methods for treating cancer” (X4 Pharmaceuticals, Inc., priority 2015, dated 2021).

Experiment [1] has as its system A498 RCC xenografts. Nature of the experiment: Murine A498 RCC xenograft model. It is filed as in vivo, mice. The note with it: FIG. 4C. Here is the method:
(§1) With each of the human cell lines, 1×10^7 tumor cells were implanted subcutaneously in the flanks of 36 nude/beige mice and tumors allowed to grow to roughly 7 mm in diameter. […] Therefore, on day 7, the mice were sacrificed and the tumors were measured and immediately excised and divided into three parts. One part of each tumor was paraffin-embedded for dual color immunofluorescence. Another part was mechanically disaggregated and treated with collagenase/DNAse to generate a single cell suspension for flow cytometry. The third part was frozen for future pharmacokinetic analysis. Microscope slides were made from the paraffin-embedded tumor tissue, which were stained with antibodies against CD11b, Gr-1, and FAP. The number of infiltrating CD11b+/Gr-1+ MDSC and FAP+ fibroblasts present in the tumor tissue was then determined by immunofluorescence (IF) as previously described (1).
(§2) The disaggregated tumor specimens were analyzed for CD11b+/Gr-1+ MDSC and FAP+ fibroblasts by flow cytometry. The fraction of both populations expressing CXCR4 were also determined. […] One part was disaggregated into single cell suspensions and analyzed by flow cytometry as above for MDSC. […] Finally, a bone marrow (BM) sample was generated by extruding marrow from an excised femur with a syringe filled with saline and analyzed by flow cytometry for MDSC.

The subject of experiment [2] is 786-0 RCC xenografts. In words: Murine 786-0 RCC xenograft model. It is filed as in vivo, mice. The note with it: 786-0 xenografts; FIG. 4A. Here is the method: as §1, §2

Take `CNC(=O)c1ccccc1Sc1ccc2c(/C=C/c3ccccn3)n[nH]c2c1` [axitinib, N-methyl-2-[3((E)-2-pyridin-2-yl-vinyl)-1H-indazol-6-ylsulfanyl]-benzamide]: the “Ki-67 positive tumor cells (IHC staining)” value in experiment [1] and in experiment [2] was “increase in Ki-67 positive tumor cells” throughout.
